According to PMC7037545:
No constants are given. Whether binding was seen depends on the method and setting. For some assays here: In cells and extracts the contact can be indirect. Some results given as binding are weak or reduced against the parent protein; the word gives no strength. Sequences can lack the tags named with a protein.

What was measured:
[1] = target: T1, ABF2 (abscisic acid (ABA)-responsive element (ABRE)-binding transcription factor), pGBKT7-DEST (BD) fusion (Arabidopsis thaliana (Col-0 cDNA)) (UniProt Q9M7Q4); test: two-hybrid; yeast strain AH109 co-transformed with AD (DELLA) and BD (ABF2 or its fragments) constructs; growth on SD medium lacking Trp, Leu, His and Ade, 30 °C, 2-5 days; three dilutions spotted
T1 sequence: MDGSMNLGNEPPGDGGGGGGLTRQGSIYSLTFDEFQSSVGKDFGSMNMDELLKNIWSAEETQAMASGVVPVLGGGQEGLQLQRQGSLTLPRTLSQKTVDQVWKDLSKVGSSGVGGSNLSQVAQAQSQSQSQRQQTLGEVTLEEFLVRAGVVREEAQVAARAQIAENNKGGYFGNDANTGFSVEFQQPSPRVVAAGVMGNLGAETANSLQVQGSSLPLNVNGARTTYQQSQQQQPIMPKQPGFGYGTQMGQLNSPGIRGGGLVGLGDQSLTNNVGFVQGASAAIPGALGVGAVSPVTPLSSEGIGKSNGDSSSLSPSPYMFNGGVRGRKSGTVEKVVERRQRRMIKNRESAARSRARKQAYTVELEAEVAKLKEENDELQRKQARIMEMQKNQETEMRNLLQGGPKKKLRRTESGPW

[2] = target: T2, ABF2-YFP^C (pEarleyGate202-YC) (Arabidopsis thaliana (Col-0 cDNA)) (UniProt Q9M7Q4); test: split reporter; BiFC: YFP^N and YFP^C fusions co-infiltrated into Nicotiana benthamiana leaves by Agrobacterium GV3101; YFP imaged by confocal microscopy 48 h after infiltration
T2 sequence: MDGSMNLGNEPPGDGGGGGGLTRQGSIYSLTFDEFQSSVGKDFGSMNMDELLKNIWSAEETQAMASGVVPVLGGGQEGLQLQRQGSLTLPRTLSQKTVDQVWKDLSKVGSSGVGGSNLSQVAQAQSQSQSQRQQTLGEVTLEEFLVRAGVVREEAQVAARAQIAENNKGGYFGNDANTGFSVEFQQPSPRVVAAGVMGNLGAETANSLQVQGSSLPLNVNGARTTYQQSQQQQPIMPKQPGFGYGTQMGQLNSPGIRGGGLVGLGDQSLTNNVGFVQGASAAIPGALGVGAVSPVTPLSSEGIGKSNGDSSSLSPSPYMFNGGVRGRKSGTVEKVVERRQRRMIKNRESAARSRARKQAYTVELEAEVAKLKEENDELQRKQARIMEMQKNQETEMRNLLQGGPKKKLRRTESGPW

Binder | binding [1] | binding [2]
RGL1 (RGA-LIKE1), pGADT7-DEST (AD) fusion (protein, UniProt Q9C8Y3 1-511) MKREHNHRESSAGEGGSSSMTTVIKEEAAGVDELLVVLGYKVRSSDMADVAHKLEQLEMVLGDGISNLSDETVHYNPSDLSGWVESMLSDLDPTRIQEKPDSEYDLRAIPGSAVYPRDEHVTRRSKRTRIESELSSTRSVVVLDSQETGVRLVHALLACAEAVQQNNLKLADALVKHVGLLASSQAGAMRKVATYFAEGLARRIYRIYPRDDVALSSFSDTLQIHFYESCPYLKFAHFTANQAILEVFATAEKVHVIDLGLNHGLQWPALIQALALRPNGPPDFRLTGIGYSLTDIQEVGWKLGQLASTIGVNFEFKSIALNNLSDLKPEMLDIRPGLESVAVNSVFELHRLLAHPGSIDKFLSTIKSIRPDIMTVVEQEANHNGTVFLDRFTESLHYYSSLFDSLEGPPSQDRVMSELFLGRQILNLVACEGEDRVERHETLNQWRNRFGLGGFKPVSIGSNAYKQASMLLALYAGADGYNVEENEGCLLLGWQTRPLIATSAWRINRVE | binds | 
RGL1, BiFC fusion (YFP fragment) (protein, UniProt Q9C8Y3 1-511) MKREHNHRESSAGEGGSSSMTTVIKEEAAGVDELLVVLGYKVRSSDMADVAHKLEQLEMVLGDGISNLSDETVHYNPSDLSGWVESMLSDLDPTRIQEKPDSEYDLRAIPGSAVYPRDEHVTRRSKRTRIESELSSTRSVVVLDSQETGVRLVHALLACAEAVQQNNLKLADALVKHVGLLASSQAGAMRKVATYFAEGLARRIYRIYPRDDVALSSFSDTLQIHFYESCPYLKFAHFTANQAILEVFATAEKVHVIDLGLNHGLQWPALIQALALRPNGPPDFRLTGIGYSLTDIQEVGWKLGQLASTIGVNFEFKSIALNNLSDLKPEMLDIRPGLESVAVNSVFELHRLLAHPGSIDKFLSTIKSIRPDIMTVVEQEANHNGTVFLDRFTESLHYYSSLFDSLEGPPSQDRVMSELFLGRQILNLVACEGEDRVERHETLNQWRNRFGLGGFKPVSIGSNAYKQASMLLALYAGADGYNVEENEGCLLLGWQTRPLIATSAWRINRVE |  | binds
